# Experimental data taken from PubChem BioAssay AID2685 (National Center for Advancing Translational Sciences (NCATS), 2010).
# The list shows a part of the results. The main result of the screen is listed elsewhere. These columns were measured beside it and carry no call. The list favours compounds with an active or inconclusive main result. Words in brackets tell the shape of the fitted curve; partial curves, single points and poor fits give uncertain potencies.
# Assay: qHTS Assay for Lipid Storage Modulators in Drosophila S3 Cells;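 for cell number change: cells counted by Cell Tracker Red CMTPX staining in the red channel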
# Details: BODIPY lipid droplet fluorescence, 18-24 h; for cell number change: measured here: cell count max response, cells fed with added oleic acid
# Outline: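 Drosophila S3 cells loaded with oleic acid (400 uM, as added) and compounds at several concentrations; lipid droplets imaged by 488-nm laser-scanning cytometry, 500–530 nm intensity and object ratio to cell channel. Percent activity normalized to 20 uM Triacsin C.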
# [1] = measured here: cell number channel AC50, cells fed with added oleic acid
# [2] = measured here: lipid fluorescence (Fed channel) AC50, cells fed with added oleic acid
SMILES,cell number change [%],AC50 [1],AC50 [2]
CC1CN(C(=O)c2cc3ccccc3cc2O)CC(C)O1 (stereo not drawn),-50,"0.00517 µM [falling, full curve, poor fit]","20.6 µM [rising, single point]"
C=CCn1cc(/C=C2\SC(N3CCOCC3)=NC2=O)c2ccccc21,-0.743,–,–
O=C(Nc1ccccc1Cl)c1cc(S(=O)(=O)N2CCOCC2)cs1,-20,–,"6.51 µM [rising, single point]"
CCCn1c(SCC(=O)N2c3ccccc3Sc3ccccc32)nc2ccccc21,26.8,"0.517 µM [falling, single point]","25.9 µM [rising, single point]"
Cc1c(C(=O)O)sc2nc3n(c(=O)c12)CCCCC3,2.04,–,"6.51 µM [falling, single point]"
COc1ccc(NC(=O)CSc2nc(C3CC3)nc3ccccc23)c(OC)c1,5,–,–
COc1ccc(CC(=O)N/N=C\c2cc(Br)c(O)c(Br)c2)cc1,12.2,–,–
COC(=O)CCCCC(=O)C1C(=O)CC(C)(C)C(C(=O)OC)C1=O (stereo not drawn),-199,"29.1 µM [falling, single point]","29.1 µM [falling, partial curve]"
Cn1cc(Cl)c(C(=O)OCC(=O)Nc2cccc(Cl)c2)n1,-2.02,–,"0.13 µM [falling, full curve, poor fit]"
N#Cc1ccc(COn2nnc3ccccc32)cc1,–,"0.092 µM [falling, single point]",–
CC(=O)N1CCC(N(CCN2CCOCC2)C(=S)Nc2cc(C)ccc2C)CC1,-11.8,–,"3.26 µM [falling, full curve, poor fit]"
CNc1ncnc(Sc2ccc(Cl)cc2)c1[N+](=O)[O-],-12.5,"0.231 µM [falling, full curve]","0.206 µM [falling, full curve]"
Cc1ccccc1NC(=O)c1ccccc1NS(=O)(=O)c1cccc2cccnc12,4.21,–,–
COc1ccc(C(=O)/C=C/Nc2ccc(S(=O)(=O)Nc3nc(C)cc(C)n3)cc2)cc1OC,8.97,–,"3.26 µM [rising, partial curve]"
COc1ccc(NC(=O)Cn2c(=O)n(-c3ccccc3)c(=O)c3oc4ccccc4c32)c(OC)c1,8.54,–,"29.1 µM [rising, single point]"
Cc1nc(-c2ccc(C(=O)Nc3cc(S(N)(=O)=O)ccc3C)cc2)cs1,-33.6,"2.31 µM [falling, partial curve, poor fit]",–
COc1ccc(/C=C/C(=O)C23CC4CC(CC(C4)C2)C3)cc1CN1CCOCC1,12.2,–,"25.9 µM [rising, single point]"
CC(=O)c1ccc(C(=O)N2CCC(CO)(Cc3cccc(C(F)(F)F)c3)CC2)cc1,-12.2,–,–
COc1ccc(COC(=O)c2ccc(Cl)c(S(=O)(=O)N3CCOCC3)c2)cc1F,-13.3,–,–

SMILES,cell number change [%],AC50 [1],AC50 [2]
Cc1ccccc1C(=O)Oc1cccc2c(O)cccc12,-30.8,"23.1 µM [falling, single point]","20.6 µM [falling, single point]"
CCOC(=O)c1c(C)c(C(=O)NCCCN2CCCC2=O)c(C)n1CC,34.5,"23.1 µM [rising, single point]","7.31 µM [rising, partial curve, poor fit]"
Cn1c(Cc2ccccc2)nnc1SCC(=O)N1CCOCC1,-1.01,–,"29.1 µM [falling, single point]"
Cc1ccc(CNC(=O)COc2ccc3c(c2)CCC3)cc1,25.7,–,"20.6 µM [rising, single point]"
C/C(=N/OCO/N=C(\C)c1ccccc1)c1ccccc1,13.2,–,"0.00366 µM [rising, full curve, poor fit]"
O=C(N/C(=C/c1ccco1)C(=O)N1CCCCCC1)c1ccccc1,15.5,–,"6.51 µM [rising, single point]"
CC(=O)Nc1cc2c(cc1[N+](=O)[O-])OCCO2,1.08,"3.66 µM [falling, single point]","3.66 µM [falling, single point]"
CCOC(=O)c1cnc2c(OC)cccc2c1N1CCN(c2ccccn2)CC1,-78.2,"18.4 µM [falling, single point]",–
NCCNc1ccc(C(=O)N2c3ccccc3Sc3ccccc32)cc1[N+](=O)[O-],11.2,–,–
COc1ccc(S(=O)(=O)N2CCC(C(=O)N[C@H](C(=O)N3CCCCCC3)C(C)C)CC2)cc1,-7.59,–,"11.6 µM [falling, partial curve, poor fit]"
C[C@@H]1NC(=O)c2cc([N+](=O)[O-])cc(I)c2NCC[C@@H](C(N)=O)NC(=O)[C@H](CC(N)=O)NC1=O,-36.9,"29.1 µM [falling, single point]","18.4 µM [falling, partial curve, poor fit]"
O=C(CC(=O)NCc1ccc(Cl)cc1)NCc1ccc(Cl)cc1,–,"0.291 µM [rising, partial curve, poor fit]",–
COC(=O)Cn1nc(-c2ccc(C)c(S(=O)(=O)N(C)C)c2)c2ccccc2c1=O,-4.39,–,"2.91 µM [rising, single point]"
O=[N+]([O-])c1ccc2n[nH]nc2c1,0.724,"0.731 µM [falling, full curve]",–
Cc1ccc(NC(=O)CNCc2ccccc2)cc1Br,–,"2.31 µM [falling, partial curve]",–
Cn1c(Cc2ccccc2)nnc1SCC(=O)Nc1ccccc1N1CCOCC1,–,"1.84 µM [rising, partial curve]","0.82 µM [rising, single point]"
CC(=O)c1ccc(-c2ccc(C(=O)N3CCC(C(N)=O)CC3)o2)cc1,29.9,–,"10.3 µM [rising, partial curve, poor fit]"
CC(C)NC(=O)CSc1nnc(-c2ccc(C(C)(C)C)cc2)n1C,–,–,"20.6 µM [falling, single point]"
CCOc1ccc(CNn2nnnc2N)cc1,-1.56,"6.51 µM [falling, single point]","3.66 µM [falling, single point]"

# 3 structures from above, arranged by molar mass, ascending:
SMILES,cell number change [%],AC50 [1],AC50 [2]
Cc1ccccc1C(=O)Oc1cccc2c(O)cccc12,-30.8,"23.1 µM [falling, single point]","20.6 µM [falling, single point]"
Cc1ccc(CNC(=O)COc2ccc3c(c2)CCC3)cc1,25.7,–,"20.6 µM [rising, single point]"
Cc1ccc(NC(=O)CNCc2ccccc2)cc1Br,–,"2.31 µM [falling, partial curve]",–

# More records

SMILES,cell number change [%],AC50 [1],AC50 [2]
CCOc1ccc(CCNC(=O)COC(=O)c2ccc(F)c(S(=O)(=O)N3CCOCC3)c2)cc1OCC,-33,"1.16 µM [falling, full curve, poor fit]","10.3 µM [falling, partial curve, poor fit]"
Cc1cccc(C)c1NC(=O)CCCSc1nnc(-c2ccco2)n1-c1ccccc1,0.593,"0.00461 µM [rising, full curve, poor fit]","0.0731 µM [rising, full curve, poor fit]"
Cn1c(-c2c(N)n(CCc3ccccc3)c3nc4ccccc4nc23)nc2ccccc21,-2.61,–,–
COc1ccc(Br)cc1C(=O)Nc1ccccc1N1CCN(C(=O)c2ccccc2)CC1,25.5,–,–
CCN(C(=O)c1ccco1)c1nc(CC(=O)Nc2ccc(Cl)cc2)cs1,-14.1,"0.184 µM [rising, full curve]",–
CC(C)N=Cc1c(O)[nH]c2ccccc12,41.3,"2.59 µM [rising, full curve]","4.11 µM [rising, partial curve]"
CC(C)NC(=O)C(c1ccc(F)cc1)N(Cc1ccco1)C(=O)CCC(=O)Nc1ccccn1 (stereo not drawn),4.2,–,"0.206 µM [rising, single point]"
CC(C)N1CC(C(=O)Nc2ccc(S(=O)(=O)N3CCCCC3)cc2)CC1=O (stereo not drawn),14.5,–,–
O=C1C=C(c2ccc3ncccc3c2)C[C@@H](c2ccc3c(c2)OCO3)C1,-26.9,–,"0.651 µM [rising, single point]"
Cc1ccc(OCc2nnc(SCC(=O)Nc3cc(C)on3)n2C)cc1,-34,"0.731 µM [falling, full curve]","25.9 µM [falling, single point]"
CCOC(=O)c1c(NC(=O)CSc2ncccn2)sc(C(=O)NC)c1C,8.5,"0.164 µM [rising, full curve, poor fit]","0.116 µM [rising, full curve]"
COc1ccc(NS(=O)(=O)c2cccc3nsnc23)cc1OC,–,"3.26 µM [rising, partial curve]","0.291 µM [rising, full curve]"
CCc1cccc(C)c1NC(=O)c1ccc2c(c1)CCN2S(C)(=O)=O,20.6,–,"11.6 µM [rising, partial curve, poor fit]"
Cc1noc(C)c1CN1C(=O)NC(Cc2ccccc2)(Cc2ccccc2)C1=O,5.94,–,"8.2 µM [rising, partial curve]"
O=C(c1ccc(Cl)cc1)C1CCCN(Cc2ccc(Oc3ncccn3)cc2)C1 (stereo not drawn),-7.51,–,"13 µM [falling, partial curve, poor fit]"
COc1ccc(C(=O)Nc2cc(OC)c(Cl)cc2Cl)cc1,8.21,"0.00517 µM [falling, full curve, poor fit]",–
CCN(CC)S(=O)(=O)c1cccc(C(=O)N[C@H](C(=O)OCC(=O)Nc2ccccc2)C(C)C)c1,36.2,–,–
CC(C)CC(C(=O)OCC(=O)c1c(N)n(C)c(=O)n(C)c1=O)N1C(=O)C2CC=CCC2C1=O (stereo not drawn),4.64,–,"0.517 µM [falling, full curve, poor fit]"
CNC(=O)/C(=C\c1ccc2c(c1)OCO2)NC(=O)c1ccc(Br)cc1,4.6,–,"0.651 µM [rising, partial curve, poor fit]"
